Data as given in PubChem BioAssay AID504804 (Drosophila RNAi Screening Center, 2011).

Aim: 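Knock-downs shielding fly cells from apoptosis caused by DNA damage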 (primary screen)
Cells: Drosophila Kc cells
Knock-down reagent: long dsRNA against Drosophila genes, 0.5 µg dsRNA per well
Timing: 96 h (48 h knock-down, then 48 h drug)
Conditions: doxorubicin 5 µg/ml for 48 h, added 48 h after dsRNA
Measurement: 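Viability measured as cellular ATP by luminescence after 48 h knock-down then 48 h doxorubicin at 5 µg/ml; unnormalised plate counts for each replicate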
Reading the numbers: raw ATP luminescence: higher = more viable cells, protection from doxorubicin
Active means: 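z-score of 2 or more over plate mean in both duplicates, retained only when retests and separate dsRNAs confirm the protection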
The deposit covers about 19,000 reagents; shown is a random part of those that have a named target and a result. In the full data, 47 (0.25%) are marked active. 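Signals are raw, not normalised; exact z-scores behind calls not deposited; actives needed confirmation, so some wells reaching 2 SD are inactive.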 Unmarked entries are inactive. The numbers tell different reagents against one gene apart. Names joined by + are all predicted targets of the reagent.

no.	Target gene	dsRNA no.	SD above plate mean	raw ATP luminescence, replicate 1	raw ATP luminescence, replicate 2
1	CG5961	1		37680	25507
2	RpS7	1		20740	26820
3	Dmtn	1		35813	15697
4	Fam92	1		84840	60317
5	CG31121	1		54760	62550
6	CG31121	2		53420	60080
7	CG31272	1		57113	43587
8	CG2070	1		40800	72590
9	UGP + PGRP-LF	1		74307	64560
10	Taz	1		2.96e5	3.25e5
11	p130CAS + Dic61B	1		50823	65490
12	Abi	1		49383	30330
13	Nin	1		1.08e5	55597
14	Non1	1		58010	50950
15	CG14817	1		49430	43740
16	CG13392	1		40717	64583
17	Torsin	1		1.57e5	1.57e5
18	BckdhB	1		3.30e5	3.08e5
19	twf	1		52997	34510
20	Rh3	1		46230	51160
21	Uvrag	1		1.02e5	69280
22	dpr17	1		2.35e5	2.04e5
23	dpr17	2		24767	25860
24	dpr17	3		48460	50790
25	zen	1		69197	80137
26	CG7548	1		72383	83800
27	CG17375	1		30507	34760
28	CG15344 (retired record)	1		38710	43690
29	CG17572	1		61127	55267
30	Acp32CD	1		40030	71103
31	CG8281	1		61103	71033
32	Bin1	1		67980	73960
33	twe	1		1.14e5	74930
34	CG7248	1		74390	60033
35	Tmlh	1		60180	61070
36	CG7382	1		95110	53753

Continued, starting with the last 11 of the part before.
no.	Target gene	dsRNA no.	SD above plate mean	raw ATP luminescence, replicate 1	raw ATP luminescence, replicate 2
26	CG7548	1		72383	83800
27	CG17375	1		30507	34760
28	CG15344 (retired record)	1		38710	43690
29	CG17572	1		61127	55267
30	Acp32CD	1		40030	71103
31	CG8281	1		61103	71033
32	Bin1	1		67980	73960
33	twe	1		1.14e5	74930
34	CG7248	1		74390	60033
35	Tmlh	1		60180	61070
36	CG7382	1		95110	53753
37	Or88a	1		83940	81670
38	ATPsyngamma	1		49530	36080
39	CG17032	1		45580	34937
40	CG11590	1		3.80e5	3.38e5
41	CG31681	1		2.82e5	2.80e5
42	PGS1	1		51790	51950
43	RpL13	1		60853	73860
44	sr	1		2.02e5	1.94e5
45	sr	2		19030	20210
46	mbt	1		1.99e5	1.59e5
47	Cyt-c1L	1		34380	31380
48	CG13036 (retired record)	1		75393	55813
49	CG31809	1		2.76e5	2.39e5
50	CG8563	1		68517	86053
51	CG17029	1		1.03e5	75813
52	Sema2b	1		1.01e5	1.07e5
53	Sema2b	2		1.72e5	97790
54	Smyd3	1		63720	45770
55	Ref2	1		59140	78623
56	CG16978	1		76573	74997
57	Gr47b	1		82530	79180
58	CG14607	1		70490	74917
59	CG12655	1		4.34e5	3.77e5
60	Cdk4	1		52150	55297
61	Acsf3	1		70470	61380
62	CG14855	1		77780	90180
63	snRNA:U1:95Cc + snRNA:U1:95Cb	1		1.64e5	1.87e5
64	CG13992	1		25910	30350
65	TRAM	1		85330	61100
66	TRAM	2		70550	61440
67	atilla	1		55690	59137
68	CG13038	1		49947	47993
69	CG32971	1		2.85e5	2.52e5
70	CG5554	1		49847	42797
71	CG9521	1		3.61e5	3.09e5
72	kuz	1		54793	60863
73	CG7879	1		52263	54783
74	Syx8	1		95597	61340
75	CG9592	1		58877	42823
76	CG14903	1		1.32e5	65160
77	CG13066	1		41130	31293
78	tll	1		77190	47850
79	cutlet	1		19420	20553
80	CG14687	1		60410	62820
81	CG30325	1		1.60e5	1.33e5
82	Spn88Ea	1		78040	54270
83	CG15506	1		56740	47680
84	Nup98-96	1		29790	34627
85	Nup98-96	2		39330	46720
86	CG13623	1		22690	20120
87	Galk	1		45177	36560
88	Obp50d	1		1.03e5	1.11e5
89	Pxn	1		87570	74490
90	CG11694	1		44820	47550
91	Sec13	1		36940	60840
92	CG8661	1		2.78e5	2.25e5
93	DnaJ-H	1		59973	66233
94	sas	1		68377	65747
95	Caf1-55	1		49697	22837
96	CG15212	1		82930	78320
97	RfC4	1		38870	42300
98	CG15594	1	at least 2 SD above plate mean (active)	81530	85593
99	Osi11	1		68630	59243
100	CG5662	1		1.36e5	1.85e5
101	dgt2	1		30100	48863
102	M7BP	1		93580	77593
103	alphaCOP	1		60260	51507
104	Gen	1		38553	37050
105	Smvt	1		50940	43660
106	CG2901	1		42560	47450
107	Snmp1	1		28890	31670
